{"source": "patent US10750762B2", "about": "“Bio-based N-acetyl-L-methionine and use thereof” (CJ Cheiljedang Corporation, priority 2015, dated 2020)", "assay": "Milk production and composition on feeding N-acetyl-L-methionine", "format": "in vivo, dairy cows", "method": "Based on the in vitro evaluation, the N-acetyl-L-methionine, for which high digestive degradation rate in the small intestine and bypass rate in the rumen had been observed, was subjected to verify its efficiency through a substantial evaluation with dairy cows. In order for this, the cows were divided into two separated groups, and the change in milk composition depending on presence or absence of the N-acetyl-L-methionine was analyzed during the evaluation. For this, eight dairy cows were divided into two groups so that each group consists of four cows, respectively. Additionally, the N-acetyl-L-methionine was added to the feed composition (Table 12) which are fed by the four cows in one group (30 g of N-acetyl-L-methionine by each cow per a day), and it was carried out for 84 days. • Group 1: Non-addition of N-acetyl-L-methionine • Group 2: Addition of N-acetyl-L-methionine"}
{"smiles": "CSCC[C@H](NC(C)=O)C(=O)O", "note": "[N-acetyl-L-methionine]", "values": [{"measurement": "Amount of feed intake (DMI)", "setting": "30 g per cow per day in feed, 84 days", "value": 25.4, "unit": "kg/day"}, {"measurement": "change in the total feed intake (dry matter intake, DMI)", "setting": "presence or absence of N-acetyl-L-methionine", "value": "not observed"}, {"measurement": "Amount of feed intake (DMI), rate of increase (%)", "setting": "vs non-addition group, 30 g per cow per day, 84 days", "value": 0.0, "unit": "%"}]}
